Source: publication PMC6498484
A negative result means that nothing was seen under these conditions. For some assays here: Tags and fusion partners may be left off the protein sequences shown.

Legend:
[1] = biological target: T1, PoxClrB1-120 (Penicillium oxalicum HP7-1) (UniProt A0A1C9J6R8); test: EMSA; conditions: EMSA: 20 mM Tris-HCl pH 8.0, 50 mM KCl, 0.1 mg/mL BSA, 5% glycerol, 1 mM DTT, 1 ug salmon sperm DNA, ~50 ng probe, 30 min at 30 C; footprinting at 30 C; recombinant protein; residues 1-120; protein details: Trx-His-S (pET32a); label: 6-FAM; probe letters rebuilt from the primers and the genome
T1 sequence (looked up): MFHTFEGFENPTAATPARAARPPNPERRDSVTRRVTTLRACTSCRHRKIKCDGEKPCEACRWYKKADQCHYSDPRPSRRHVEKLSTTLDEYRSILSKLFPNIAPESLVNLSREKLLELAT

[2] = biological target: PoxCxrA11-31 (Penicillium oxalicum HP7-1) (UniProt A0A2H4WV05); test: EMSA; conditions: EMSA: 20 mM Tris-HCl pH 8.0, 50 mM KCl, 0.1 mg/mL BSA, 5% glycerol, 1 mM DTT, 1 ug salmon sperm DNA, ~50 ng probe, 30 min at 30 C; footprinting at 30 C; recombinant protein; residues 11-31; protein details: Trx-His-S (pET32a); label: 6-FAM; probe letters rebuilt from the primers and the genome

Sequence | binding result [1] | binding result [2]
CACTGTGTAGCAGCATATCGAAGAAGCTGGCCATCCAGCCGGGGATTAGCAAGTTCGCGACTGCAGTGATCGGGGGTTAGAAAGTGCGAGTACCAGGATGCAAACGTGGTTCGTCGGTCTTTCTAAAACCCGCCTGTCCCCCCGCCCCCACACTCTATGGTACACTTGCCCTTTCATTCATTCTTTCTTCCTTTCTTTCCTTTTTTTTTCCGCCCAAAATCCTCGGGCTTCGGGCACTCGGACTCAGGAGCAACTCTTCTATCCCGTAGTCAATCACTTAATCACTTGCAACTGGATCAATAGTTTCTCAAGTCGTCGGC (double strand) [PoxCxrA promoter 300 bp] | no binding | 
GAGAGATCCACTACCCGCAAAATCTGGGGAGCTTCCTCCGTGTCCGCGGAGTGCGTGCTGGCAGGCATTCCATTTTCGTGCATGACTGAGATGAACTTCACCCCCTGGGGCTATGCACAGTGGTGCGGACCGCCACGCCGTGGATGTCCATCCCAAAAGGAAATCAGTCGAGAGGCGAATTGCTTCAGGATCCACCCAAGGAAGCAACTATATAAGAAGAGGTGCCATCACCTCGACTCTGGTGTTCATCATCCATTCCTTCCTCATCTCCTCCACCACCCCCCTTTCATCAGATCCTCAAAGAACAAAATTGATCATCATCTCTTTTGATCTTTGATCCAATCCATCACA (double strand) [POX05587/Cel7A-2 promoter 300 bp] |  | no binding
